The list shows a part of the results.
Tests used:
Experiment in all cases: log2 fold change, soluble protein after heating vs DMSO (PISA); higher = thermal stabilisation; K562 cells, 10 uM, 30 min; active = over 0.2 and 3.5 SD of the protein, either way, in both replicates (recomputed)
[1] = compound: CC1=C(C=C(C=C1)NC(=O)C2=CC(=CC=C2)C(C)(C)C#N)NC3=CC4=C(C=C3)N=CN(C4=O)C
In short: (§1)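 K562 cells at 2×10^6 cells/mL were given 10 μM compound for 30 min. Aliquots then went through 3 min of heating across 48°C-58°C, were pooled, and were extracted in PBS with 0.5% NP-40 at 4°C, and the supernatant after 21,000xg for 90 min was quantified by TMTpro 16plex LC-MS/MS with channel sums equalised. Thermal stability relative to control samples, from duplicates, is given as log2 fold change.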

Sequences of proteins named here, by UniProt entry; tags and fusion partners are left off. A change or cut given only in a name is not applied to a line headed by its entry.
UniProt Q8IUQ4: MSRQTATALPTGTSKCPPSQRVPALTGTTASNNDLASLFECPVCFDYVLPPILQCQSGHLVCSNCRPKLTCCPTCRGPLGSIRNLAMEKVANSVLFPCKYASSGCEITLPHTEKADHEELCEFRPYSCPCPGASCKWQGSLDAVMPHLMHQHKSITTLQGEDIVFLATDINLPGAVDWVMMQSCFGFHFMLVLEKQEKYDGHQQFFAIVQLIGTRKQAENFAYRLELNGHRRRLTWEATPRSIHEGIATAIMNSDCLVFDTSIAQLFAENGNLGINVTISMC
UniProt P84101: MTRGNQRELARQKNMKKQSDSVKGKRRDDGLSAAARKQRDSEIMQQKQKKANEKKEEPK
UniProt Q9Y6D0, whole entry, looked up: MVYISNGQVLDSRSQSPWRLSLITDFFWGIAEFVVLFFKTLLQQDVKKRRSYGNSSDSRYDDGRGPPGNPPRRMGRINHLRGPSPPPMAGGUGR
UniProt O95562: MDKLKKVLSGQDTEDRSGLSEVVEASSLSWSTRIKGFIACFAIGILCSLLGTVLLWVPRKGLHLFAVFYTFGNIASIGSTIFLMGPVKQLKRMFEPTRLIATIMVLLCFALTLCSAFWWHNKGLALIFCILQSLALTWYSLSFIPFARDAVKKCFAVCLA
UniProt Q6P4A7: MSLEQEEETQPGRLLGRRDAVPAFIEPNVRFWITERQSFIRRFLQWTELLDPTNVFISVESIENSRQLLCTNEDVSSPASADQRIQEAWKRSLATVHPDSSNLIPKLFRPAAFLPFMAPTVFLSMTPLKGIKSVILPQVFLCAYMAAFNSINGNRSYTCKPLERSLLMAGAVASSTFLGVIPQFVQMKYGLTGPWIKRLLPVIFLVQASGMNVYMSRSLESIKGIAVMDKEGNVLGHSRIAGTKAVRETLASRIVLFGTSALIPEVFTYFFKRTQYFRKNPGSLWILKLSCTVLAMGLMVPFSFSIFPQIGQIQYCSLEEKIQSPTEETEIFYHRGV
UniProt Q9BWJ5: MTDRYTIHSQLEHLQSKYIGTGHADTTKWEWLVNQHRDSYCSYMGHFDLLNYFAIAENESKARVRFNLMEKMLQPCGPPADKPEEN
UniProt Q8WV19: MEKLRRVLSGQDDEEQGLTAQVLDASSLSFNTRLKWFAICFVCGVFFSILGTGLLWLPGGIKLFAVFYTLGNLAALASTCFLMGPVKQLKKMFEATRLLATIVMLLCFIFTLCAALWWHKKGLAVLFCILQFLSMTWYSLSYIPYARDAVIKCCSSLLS
UniProt Q9NZV5, whole entry, looked up: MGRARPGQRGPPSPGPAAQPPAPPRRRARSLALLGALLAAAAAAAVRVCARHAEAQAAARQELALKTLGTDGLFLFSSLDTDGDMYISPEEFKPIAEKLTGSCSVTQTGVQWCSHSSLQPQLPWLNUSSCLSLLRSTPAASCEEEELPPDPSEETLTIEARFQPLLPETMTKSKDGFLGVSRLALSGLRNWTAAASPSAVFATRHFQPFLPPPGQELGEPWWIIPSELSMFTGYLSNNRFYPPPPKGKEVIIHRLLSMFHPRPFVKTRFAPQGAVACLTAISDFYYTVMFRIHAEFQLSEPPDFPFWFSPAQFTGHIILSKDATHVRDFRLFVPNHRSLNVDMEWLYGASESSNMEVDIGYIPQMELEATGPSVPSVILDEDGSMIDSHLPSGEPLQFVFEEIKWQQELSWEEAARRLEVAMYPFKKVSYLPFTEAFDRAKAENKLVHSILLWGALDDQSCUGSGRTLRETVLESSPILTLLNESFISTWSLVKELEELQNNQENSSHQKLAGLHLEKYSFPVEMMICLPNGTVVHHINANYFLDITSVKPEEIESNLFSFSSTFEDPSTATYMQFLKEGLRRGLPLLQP

[2] = compound: CC1=CC=C(C=C1)SC2=C3C=C(SC3=CN=C2)C(=O)N
In short: as §1

[3] = compound: CC1=NC(=CC=C1)C2=C(N=C(N2)C(C)(C)C)C3=CC4=NC=CN=C4C=C3
In short: as §1

[4] = compound: CCCCN(Cc1ccc(C(=O)NO)cc1)C(=O)Nc1ccccc1 [Nexturastat A]
In short: as §1

[5] = compound: CCCS(=O)(=O)Nc1ccc(F)c(C(=O)c2c[nH]c3ncc(-c4ccc(Cl)cc4)cc23)c1F [vemurafenib]
In short: as §1

[6] = compound: CCCS(=O)(=O)Nc1ccc(F)c(C(=O)c2c[nH]c3ncc(Cl)cc23)c1F
In short: as §1

[7] = compound: CCN(CC)Cc1ccc2cc(COC(=O)Nc3ccc(C(=O)NO)cc3)ccc2c1 [givinostat]
In short: as §1

[8] = compound: CCN(CCCOc1ccc2c(Nc3cc(CC(=O)Nc4cccc(F)c4)[nH]n3)ncnc2c1)CCOP(=O)(O)O [barasertib]
In short: as §1

[9] = compound: CC1=C(C=C(C=C1)NC(=O)C2=CC(=CC=C2)N(C)C)NC(=O)C3=CC=C(C=C3)O
In short: as §1

[10] = compound: CCCc1cc(C)[nH]c(=O)c1CNC(=O)c1cc(-c2ccnc(N3CCN(C)CC3)c2)cc2c1cnn2C(C)C
In short: as §1

Measured: log2 fold change

SIAH1 isoform 2 (UniProt Q8IUQ4)
inactive: [1] 0.048 | [2] 0.031 | [3] -0.054 | [4] -0.318 | [5] 0.032 | [6] 0.043 | [7] -0.17 | [8] -0.085

SF1 (UniProt H7BZT1)
inactive: [9] -0.188

SERF2 (UniProt P84101)
inactive: [1] -0.032 | [9] -0.005 | [4] 0.066 | [5] -0.156 | [10] -0.027 | [7] -0.012 | [8] -0.02

SELENOK (UniProt Q9Y6D0)
inactive: [1] 0.25 | [4] -0.098 | [5] 0.137 | [10] -0.444 | [7] -0.008 | [8] -0.156

SIK3 (UniProt H0Y4E8)
inactive: [1] 0.017 | [9] 0.18 | [2] -0.062 | [3] -0.066 | [5] -0.08 | [6] -0.076 | [10] -0.026 | [7] 0.098

SFT2D2 (UniProt O95562)
inactive: [1] -0.073 | [9] -0.063 | [2] 0.007 | [4] -0.161 | [5] -0.1 | [6] 0.083 | [10] -0.065 | [7] -0.058 | [8] 0.002

SF1 (UniProt H7C0N4)
inactive: [9] -0.05 | [2] -0.059 | [3] 0.103 | [5] 0.016 | [6] 0.052 | [10] -0.017 | [8] -0.064

SFXN4 isoform 3 (UniProt Q6P4A7)
inactive: [1] 0.244 | [2] 0.079 | [5] 0.17 | [6] 0.179 | [7] 0.048 | [8] -0.037

SF3B5 (UniProt Q9BWJ5)
inactive: [1] 0.003 | [2] 0.072 | [3] 0.111 | [4] 0.042 | [5] -0.055 | [6] -0.027 | [10] -0.009 | [7] 0.129 | [8] -0.12

SFT2D1 (UniProt Q8WV19)
inactive: [1] 0.053 | [9] 0.041 | [2] -0.068 | [6] 0.001 | [10] -0.114

SELENON (UniProt Q9NZV5)
inactive: [1] 0.011 | [9] 0.068 | [5] 0.038

Reference: the supplement of paper PMC10849652
